The source of these data is publication PMC3794858, “NECAP 1 Regulates AP-2 Interactions to Control Vesicle Size, Number, and Cargo During Clathrin-Mediated Endocytosis” (PLoS Biology, 2013).

These are yes or no findings as the source states them, for the method shown. A result given as binding can be weak or reduced; the word gives no strength. For some of these results: Binding seen in cells or lysates may run through a third protein. For some of these results: Tags and fused reporters may be left off the sequences shown.

Test [1] deals with T1, GST–PHear–Ex (NECAP 1 aa 1–178 fused to GST) (mouse) (UniProt Q9CR95).
T1 sequence: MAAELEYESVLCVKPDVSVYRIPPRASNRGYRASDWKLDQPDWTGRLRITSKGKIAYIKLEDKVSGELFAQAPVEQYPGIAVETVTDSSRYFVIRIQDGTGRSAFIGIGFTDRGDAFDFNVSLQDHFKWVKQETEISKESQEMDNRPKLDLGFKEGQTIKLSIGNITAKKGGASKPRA
In words: pull-down; GST fusion proteins precoupled to glutathione-Sepharose, COS-7 cell extract, 1 h at 4°C, 10 mM HEPES pH 7.4, 1% Triton X-100, 50 mM NaCl; Western blot; only the target purified. For orientation: Immunoblotting shows a protein as a band on a membrane.

Test [2] deals with T2, GST–NECAP 1 (mouse) (UniProt Q9CR95).
T2 sequence: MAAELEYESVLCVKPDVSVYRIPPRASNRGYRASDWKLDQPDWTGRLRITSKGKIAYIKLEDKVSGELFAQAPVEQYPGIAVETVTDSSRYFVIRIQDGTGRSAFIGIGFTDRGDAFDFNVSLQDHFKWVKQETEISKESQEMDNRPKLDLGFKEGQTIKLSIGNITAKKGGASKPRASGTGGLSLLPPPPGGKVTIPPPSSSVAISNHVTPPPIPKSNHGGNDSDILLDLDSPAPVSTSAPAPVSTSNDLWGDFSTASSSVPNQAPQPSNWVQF
The description is as above.

Test [3] deals with T3, GST–PHear (NECAP 1 PHear domain, aa 1–133, fused to GST) (mouse) (UniProt Q9CR95).
T3 sequence: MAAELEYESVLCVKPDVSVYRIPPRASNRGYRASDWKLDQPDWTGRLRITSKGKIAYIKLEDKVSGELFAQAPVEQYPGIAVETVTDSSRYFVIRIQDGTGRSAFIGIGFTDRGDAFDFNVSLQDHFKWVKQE
Described as above.

Test [4] has as its target Whole AP-2 purified from brain CCVs (rabbit (endogenous in brain)). In words: pull-down; competition: AP-2 purified from rabbit brain CCVs bound to 40 µg GST-clathrin terminal domain on glutathione beads, then 1 h at 4°C with buffer or varying amounts of purified PHear–Ex; Western blot; both purified.

Take “AP-2 (endogenous, COS-7 cells) (complex)”: the binding result in test [1], in test [2] and in test [3] was “binds” throughout.

B1: purified PHear–Ex (soluble competitor) (domain or fragment, UniProt Q9CR95 1-178)
chain: T1 sequence
Consider B1, for which the binding entry in test [4] is “binds”.
